Measurements published in publication PMC12408324.
No constants are given. Whether binding was seen depends on the method and setting. Binding seen in cells or lysates may run through a third protein. Some entries that bind do so weakly or less than the wild type. Tags and fused reporters may be left off the sequences shown.

Amino acid sequences for entries named in this document (tags omitted).
UniProt P19474: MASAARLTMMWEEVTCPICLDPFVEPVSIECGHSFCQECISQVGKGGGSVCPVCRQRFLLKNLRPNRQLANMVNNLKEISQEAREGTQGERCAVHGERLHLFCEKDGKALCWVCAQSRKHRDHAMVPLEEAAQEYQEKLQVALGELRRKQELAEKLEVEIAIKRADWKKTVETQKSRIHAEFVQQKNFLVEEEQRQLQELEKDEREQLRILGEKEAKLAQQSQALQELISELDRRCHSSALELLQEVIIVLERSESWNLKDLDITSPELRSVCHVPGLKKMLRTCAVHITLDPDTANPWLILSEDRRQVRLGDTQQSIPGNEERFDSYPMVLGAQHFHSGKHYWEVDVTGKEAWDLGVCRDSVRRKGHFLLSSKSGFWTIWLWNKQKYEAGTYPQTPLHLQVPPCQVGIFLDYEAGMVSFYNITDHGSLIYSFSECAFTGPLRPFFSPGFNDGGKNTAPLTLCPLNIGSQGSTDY

Target: T1, Flag-tagged ID1 (human) (UniProt P41134)
T1 sequence: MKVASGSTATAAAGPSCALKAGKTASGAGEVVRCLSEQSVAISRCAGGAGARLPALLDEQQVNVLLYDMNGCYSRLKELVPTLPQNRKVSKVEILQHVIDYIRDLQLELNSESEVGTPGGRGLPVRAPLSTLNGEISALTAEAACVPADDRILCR
Experiment: co-IP; PANC-1 and AsPC-1 cells with Flag-tagged ID1; normoxia or hypoxia (3% O2, 12 h); NP-40 lysis buffer (50 mM Tris-HCl pH 7.5, 150 mM NaCl, 1% NP-40); anti-FLAG M2 magnetic beads overnight at 4°C; western blot

binding: binds
Substance: TRIM21 (Tripartite motif-containing protein 21) (from UniProt P19474 1-475)
